Measurements reported in publication PMC4591343.
Results are given in words; binding and its absence hold for the method and conditions named. In cells and extracts the contact can be indirect. Some binding calls cover weakened binding; strength is not graded here.

The chains behind the UniProt entries cited, without tags or fusion partners. Where a name states a change or a piece, a line headed by the entry shows the natural chain unless it says otherwise.
UniProt O75838: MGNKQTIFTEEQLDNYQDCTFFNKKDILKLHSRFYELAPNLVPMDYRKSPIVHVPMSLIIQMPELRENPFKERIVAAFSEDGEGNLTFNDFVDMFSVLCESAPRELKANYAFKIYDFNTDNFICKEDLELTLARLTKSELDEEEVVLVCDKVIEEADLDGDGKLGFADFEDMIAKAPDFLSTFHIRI

Molecular target: CIB2^R186W-GFP (human calcium and integrin binding protein 2 with p.Arg186Trp, GFP-tagged) (human) (UniProt O75838)
Experiment: co-IP; HEK 293 cells transfected with both constructs; lysed by sonication in RIPA buffer; antibody to GFP on Protein A-Sepharose CL-4B beads, overnight at 4°C; western blot with antibodies against GFP and DsRed

B1: Dsred-Whirlin (protein, UniProt Q9P202 1-907)
chain: MNAPLDGLSVSSSSTGSLGSAAGAGGGGGAGLRLLSANVRQLHQALTALLSEAEREQFTHCLNAYHARRNVFDLVRTLRVLLDSPVKRRLLPMLRLVIPRSDQLLFDQYTAEGLYLPATTPYRQPAWGGPDSAGPGEVRLVSLRRAKAHEGLGFSIRGGSEHGVGIYVSLVEPGSLAEKEGLRVGDQILRVNDKSLARVTHAEAVKALKGSKKLVLSVYSAGRIPGGYVTNHIYTWVDPQGRSISPPSGLPQPHGGALRQQEGDRRSTLHLLQGGDEKKVNLVLGDGRSLGLTIRGGAEYGLGIYITGVDPGSEAEGSGLKVGDQILEVNGRSFLNILHDEAVRLLKSSRHLILTVKDVGRLPHARTTVDETKWIASSRIRETMANSAGFLGDLTTEGINKPGFYKGPAGSQVTLSSLGNQTRVLLEEQARHLLNEQEHATMAYYLDEYRGGSVSVEALVMALFKLLNTHAKFSLLSEVRGTISPQDLERFDHLVLRREIESMKARQPPGPGAGDTYSMVSYSDTGSSTGSHGTSTTVSSARNTLDLEETGEAVQGNINALPDVSVDDVRSTSQGLSSFKPLPRPPPLAQGNDLPLGQPRKLGREDLQPPSSMPSCSGTVFSAPQNRSPPAGTAPTPGTSSAQDLPSSPIYASVSPANPSSKRPLDAHLALVNQHPIGPFPRVQSPPHLKSPSAEATVAGGCLLPPSPSGHPDQTGTNQHFVMVEVHRPDSEPDVNEVRALPQTRTASTLSQLSDSGQTLSEDSGVDAGEAEASAPGRGRQSVSTKSRSSKELPRNERPTDGANKPPGLLEPTSTLVRVKKSAATLGIAIEGGANTRQPLPRIVTIQRGGSAHNCGQLKVGHVILEVNGLTLRGKEHREAARIIAEAFKTKDRDYIDFLVTEFNVML
In the case of B1, the binding is reported as “binds”.
